Laboratory results as given in article PMC10343166.
Results are given in words; binding and its absence hold for the method and conditions named. Some results given as binding are weak or reduced against the parent protein; the word gives no strength.

By UniProt entry, the sequences of proteins in these tests, tags left out. Residues count along the entry.
UniProt P55786, residues 46-919: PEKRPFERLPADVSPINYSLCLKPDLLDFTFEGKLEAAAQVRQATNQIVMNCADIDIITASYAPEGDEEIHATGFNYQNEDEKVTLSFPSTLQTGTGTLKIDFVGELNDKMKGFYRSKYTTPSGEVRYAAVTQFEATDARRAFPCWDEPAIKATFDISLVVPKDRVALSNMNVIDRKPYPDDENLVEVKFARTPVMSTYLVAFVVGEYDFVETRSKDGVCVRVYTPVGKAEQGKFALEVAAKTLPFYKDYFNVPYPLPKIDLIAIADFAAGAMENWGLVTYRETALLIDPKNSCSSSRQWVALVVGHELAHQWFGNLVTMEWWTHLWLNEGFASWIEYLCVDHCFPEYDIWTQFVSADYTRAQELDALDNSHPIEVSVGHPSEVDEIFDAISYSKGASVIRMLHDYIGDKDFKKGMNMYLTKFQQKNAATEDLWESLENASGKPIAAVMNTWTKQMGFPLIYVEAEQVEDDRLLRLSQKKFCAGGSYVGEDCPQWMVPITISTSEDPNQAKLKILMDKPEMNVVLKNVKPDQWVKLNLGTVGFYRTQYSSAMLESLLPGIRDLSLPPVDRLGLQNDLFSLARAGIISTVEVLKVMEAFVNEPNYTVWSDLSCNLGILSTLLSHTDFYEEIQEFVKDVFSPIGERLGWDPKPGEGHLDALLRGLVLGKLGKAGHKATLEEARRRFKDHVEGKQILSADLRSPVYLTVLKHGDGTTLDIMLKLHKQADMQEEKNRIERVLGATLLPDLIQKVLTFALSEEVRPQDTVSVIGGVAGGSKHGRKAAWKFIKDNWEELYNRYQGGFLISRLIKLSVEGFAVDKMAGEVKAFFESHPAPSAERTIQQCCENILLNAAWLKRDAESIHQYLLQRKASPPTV

Target: Puromycin-sensitive aminopeptidase (human PSA for crystallization, N-terminal polyhistidine tag) (human) (UniProt P55786)
Assay: crystal structure; PSA crystals soaked 1 h in 1 mM EDTA, 0.1 M Tris pH 8.5, 0.5 M NaCl, then 45 min in crystallization conditions plus 1 mM EDTA and 200 μM PQ peptide; 3.65 Å data set; both purified

binding: binds
Binder: KKQQQQQQQQQQQQQQQKK [Polyglutamine peptide Lys2Gln15Lys2]
